# Laboratory results reported in PubChem BioAssay AID1471 (National Center for Advancing Translational Sciences (NCATS), 2008).
# Screen size: about 230,000 compounds; about 310 (0.13%) were called active. About 2% were inconclusive and are not listed. Calls follow the shape of the dose curve; as a rule, active = well fitted activation curve with a large enough effect; inconclusive = small, poorly fitted or top-dose-only effect; inactive = no such curve, though single readings can be large or run the other way. The entries are a selection whose mix differs from that of the whole data set. The source gives no active or inactive call for entries shown without one. The source holds several records for some structures; these can differ, active in one and inactive in another.
# Assay: qHTS Multiplex Assay to Identify Dual Action Probes in a Cell Model of Huntington: Cytoprotection (ATP); also: nearly all actives have a fitted effect of over 45% in size;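 as to cytoprotection (ATP increase): toxic huntingtin expression switched on by the ecdysone agonist tebufenozide; % of control where 0% means no effect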
# Settings: PC12 HTT-Q103 induced, ATP luminescence, 40 h; cytoprotection (ATP increase): at 56.4 µM (top of the series) unless noted
# Summary of the method: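 Stable PC12 Q103-GFP cells in serum-supplemented, phenol red-free DMEM; induction by tebufenozide at 100 nM final; compound dose series; cell viability quantified luminescently from ATP.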
# Potency is read from the fitted curve at half-maximal effect.
SMILES,cytoprotection (ATP increase),Potency
CCOC(=O)C1=NO[C@@]2(C=C(Br)C(=O)[C@H]3O[C@H]32)C1,40.9%,–
O=C1OCCN1C(=O)[C@H]1[C@H](c2ccccc2)C(c2cccc(Cl)c2)=NN1c1ccccc1,-45.5%,–
CCOC(=S)SCc1cn2ccccc2n1,16.3%,–
O=C(CSc1c2c(nc3ccc(Cl)cc13)CCCC2)N1CCN(C(=O)c2ccco2)CC1,–,active: 20000 nM
COC(=O)[C@@H](N)CSC/C=C(\C)CC/C=C(\C)CCC=C(C)C,-26.7%,–
CCCCC[C@H](O)/C=C/C=C\C/C=C\CCCCC(=O)O,-46.4%,–
CC(C)(C)Nc1oc(-c2ccccc2)nc1-c1ccc(C(F)(F)F)cc1,-37.5%,–
Cc1cc(NC(=O)CSc2nnc(Cn3c(=O)sc4ccccc43)n2-c2ccccc2C)no1,273% [at 10 µM],–
O=[N+]([O-])c1ccc(Sc2n[nH]c(-c3ccc(Cl)cc3Cl)n2)nc1,–,active: 794 nM
Cc1[nH]c2ccccc2c1/C=C/C(=O)c1ccncc1,–,active: 3980 nM
O=C(O)CCCCCCCC(=O)O,34.7%,–
CCN(CC)Cc1ccc(Nc2ccnc3cc(Cl)ccc23)cc1O,–,active: 14100 nM
CCCc1ncc(C[n+]2ccccc2C)c(N)n1,-62.3%,–
COc1c2c(cc3c1C(CC(=O)c1c(O)c(OC)c4occc4c1OC)[N+](C)(C)CC3)OCO2 (stereo not drawn),-32.5%,–
COc1cccc([C@@H]2Oc3ccc(Br)cc3C(=O)[C@H]2OC(=O)NS(=O)(=O)c2ccc(F)cc2)c1,-37.1%,–
COC(=O)[C@@]1(Cc2ccc(OC)cc2)[C@H]2c3cc(C(=O)N4CCCC4)n(CCc4ccc(O)c(O)c4)c3C[C@H]2CN1C(=O)c1ccccc1,–,active: 11200 nM
CO[C@@H]1COC(=O)C/C=C\[C@@H](C)[C@H](OC)COC(=O)[C@H](COCc2ccccc2)NC(=O)C/C=C\[C@H]1C,–,active: 3160 nM
CCCCCCOc1ccc(N2C(=O)CC(S/C(N)=N/N=C(\C)c3cccs3)C2=O)cc1 (stereo not drawn),–,active: 794 nM
COc1ccc(C(=O)C2CCN(C(=S)Nc3ccc(F)cc3)CC2)cc1,–,active: 2510 nM
O=C(O)c1cccnc1SC1CC(=O)N(c2cccc(C(F)(F)F)c2)C1=O (stereo not drawn),331% [at 10 µM],–
Cc1ccccc1-c1ccc2ncnc(-n3ccnc3)c2c1,–,active: 1000 nM
Clc1ccc2c(c1)C(N1CCNCC1)=Nc1ccccc1O2,–,active: 355 nM
CCCS(=O)(=O)N1CCC(C(=O)NCCCN(CC)c2cccc(C)c2)CC1,313% [at 10 µM],–
Cc1noc(C)c1C(=O)N(CC(=O)NC1CCCC1)Cc1ccccc1F,411% [at 10 µM],–
Cc1ccc(Cl)c(Nc2ccccc2C(=O)O)c1Cl,11.7%,–

SMILES,cytoprotection (ATP increase),Potency
C[C@]12O[C@H]1[C@@H](O)C(Br)=C(CO)[C@H]2O,-15.8%,–
O=C(CN1CCCCCC1)NCC1CCCO1 (stereo not drawn),–,active: 2240 nM
COc1cc2c(c(OC)c1OC)C(c1ccc3c(c1)OCO3)CC(=O)O2 (stereo not drawn),-54.8%,–
CN1CCN(c2nc3cc(C(F)(F)F)ccc3n3cccc23)CC1,-30.1%,–
Cc1cc(/C=C/c2ccc3cc(N(C)C)ccc3[n+]2C)c(C)n1-c1ccccc1,-323%,–
O=C(CSc1c2c(nc3ccc(Cl)cc13)CCCC2)NCCCN1CCOCC1,-145%,–
Cn1cc([N+](=O)[O-])c(C(=O)Nc2ccn(Cc3c(F)c(F)cc(F)c3F)n2)n1,–,active: 10000 nM
CC(=O)Nc1ccc(C(=O)/C=C/c2ccc[nH]2)cc1,285% [at 10 µM],–
COc1ccc2c(c1)O[C@H](c1ccc3c(c1)OCO3)[C@@H](OC(=O)NC1CCCC1)C2=O,-37.4%,–
CN(C)c1ccc(-c2ccc3ncnc(-n4ccnc4)c3c2)cc1,–,active: 3160 nM
O=c1cc(-c2ccccc2O)oc2c1ccc1ccccc12,–,active: 447 nM
COC(=O)[C@@H](NC(=O)O[C@@H]1C(=O)c2cc(OC)ccc2O[C@H]1c1cccc(OC)c1)C(C)C,-45.7%,–
COc1ccc(-c2c(C)cc3oc(=O)cc(-c4ccccc4)c3c2C)cc1OC,-116%,–
CC1(C)C(O)C=C[C@@]2(C)C1CC(=O)O[C@@]1(C)C3=CC(=O)OC(c4ccoc4)[C@]3(C)CCC21 (stereo partly drawn),35.1%,–
O=[N+]([O-])c1cccc(CSc2ncnc3ccccc23)c1,–,active: 2240 nM
CCc1cc(C(=O)c2ccc(OC)cc2)c(N)s1,253% [at 10 µM],–
CCOC(=O)c1nnc(-c2ccc(C)cc2)nc1Oc1ccccc1Cl,376% [at 10 µM],–
CC(=O)c1ccc(-c2ccc(-c3cc(=O)oc4c(C(C)C)ccc(C)c34)cc2)cc1,54.8%,–
CCCCC[C@H](O)/C=C/[C@H]1[C@H](O)CC(O)[C@@H]1C/C=C\CCCC(=O)O (stereo partly drawn),-4.55%,–
Fc1ccc(/C=N/N2CCOCC2)c(F)c1,–,active: 708 nM
CN(Cc1ccccc1)C(=O)[C@H](Cc1ccc2ccccc2c1)NC(=O)[C@@H]1CCCN1C(=O)Nc1ccccc1[N+](=O)[O-],-77.7%,–
COc1ccc(C2/C=C\CN(CC(C)C)CC(=O)N2Cc2cccc(F)c2)cc1 (stereo not drawn),-69.5%,–
COc1cc(-c2cccc([C@H]3[C@@H]4C=CC[C@@H](C)[C@@H]4C(=O)N3Cc3ccccc3)c2)cc(OC)c1OC,-126%,–
CSCCC(=O)N1CCCC(CNC(=O)c2ccccc2Cl)C1 (stereo not drawn),–,active: 2820 nM
CC1(OC(=O)c2ccco2)C(=O)C=C2C=C(C3CC3)OC=C2C1=O (stereo not drawn),33.7%,–

# In the list so far, these contain a halogen.
SMILES,cytoprotection (ATP increase),Potency
CCOC(=O)C1=NO[C@@]2(C=C(Br)C(=O)[C@H]3O[C@H]32)C1,40.9%,–
O=C1OCCN1C(=O)[C@H]1[C@H](c2ccccc2)C(c2cccc(Cl)c2)=NN1c1ccccc1,-45.5%,–
O=C(CSc1c2c(nc3ccc(Cl)cc13)CCCC2)N1CCN(C(=O)c2ccco2)CC1,–,active: 20000 nM
CC(C)(C)Nc1oc(-c2ccccc2)nc1-c1ccc(C(F)(F)F)cc1,-37.5%,–
O=[N+]([O-])c1ccc(Sc2n[nH]c(-c3ccc(Cl)cc3Cl)n2)nc1,–,active: 794 nM
CCN(CC)Cc1ccc(Nc2ccnc3cc(Cl)ccc23)cc1O,–,active: 14100 nM
COc1cccc([C@@H]2Oc3ccc(Br)cc3C(=O)[C@H]2OC(=O)NS(=O)(=O)c2ccc(F)cc2)c1,-37.1%,–
COc1ccc(C(=O)C2CCN(C(=S)Nc3ccc(F)cc3)CC2)cc1,–,active: 2510 nM
O=C(O)c1cccnc1SC1CC(=O)N(c2cccc(C(F)(F)F)c2)C1=O (stereo not drawn),331% [at 10 µM],–
Clc1ccc2c(c1)C(N1CCNCC1)=Nc1ccccc1O2,–,active: 355 nM
Cc1noc(C)c1C(=O)N(CC(=O)NC1CCCC1)Cc1ccccc1F,411% [at 10 µM],–
Cc1ccc(Cl)c(Nc2ccccc2C(=O)O)c1Cl,11.7%,–
C[C@]12O[C@H]1[C@@H](O)C(Br)=C(CO)[C@H]2O,-15.8%,–
CN1CCN(c2nc3cc(C(F)(F)F)ccc3n3cccc23)CC1,-30.1%,–
O=C(CSc1c2c(nc3ccc(Cl)cc13)CCCC2)NCCCN1CCOCC1,-145%,–
Cn1cc([N+](=O)[O-])c(C(=O)Nc2ccn(Cc3c(F)c(F)cc(F)c3F)n2)n1,–,active: 10000 nM
CCOC(=O)c1nnc(-c2ccc(C)cc2)nc1Oc1ccccc1Cl,376% [at 10 µM],–
Fc1ccc(/C=N/N2CCOCC2)c(F)c1,–,active: 708 nM
COc1ccc(C2/C=C\CN(CC(C)C)CC(=O)N2Cc2cccc(F)c2)cc1 (stereo not drawn),-69.5%,–
CSCCC(=O)N1CCCC(CNC(=O)c2ccccc2Cl)C1 (stereo not drawn),–,active: 2820 nM

# (listing goes on)

SMILES,cytoprotection (ATP increase),Potency
CCN(CC)CC1CCN(c2ncc3ncnc(Nc4ccc(F)c(Cl)c4)c3n2)CC1,-324%,–
CN(C)CC/C=C1\c2ccccc2Sc2ccc(Cl)cc21,-33.4%,–
O=C(/C=C/c1ccc(O)c(O)c1)OCCc1ccccc1,67.7%,–
CCCCCCOc1ccc(C(=O)n2cnc(N)n2)cc1,–,active: 12600 nM
COc1ccc2[nH]c(-c3ccc(F)cc3F)cc(=O)c2c1,-165%,–
CCCCc1nnc(NC(=O)CSc2nc(N)cc(=O)[nH]2)s1,–,active: 3160 nM
CC(C)NC[C@@H](O)COc1cccc2ccccc12,-78.2%,–
Cc1ccc(C(=O)NNC(=O)CCCN2C(=O)/C(=C/c3ccccc3Cl)SC2=S)cc1,279% [at 10 µM],–
O=C(CNC(=O)c1cccc(F)c1)OCC(=O)N1CCCCC1,298% [at 10 µM],–
Cc1cccc(NC(=O)CSc2nnc(-c3ccccc3C)o2)c1,295% [at 1.9 µM],–
CC(C)(Oc1ccc(Cl)cc1)C(=O)NC1CCSC1=O (stereo not drawn),235% [at 10 µM],–
Nc1ccc(C(=O)NCC(=O)O)cc1,–,active: 3160 nM
COC(=O)c1[nH]c2ccc(C)cc2c1NC(=O)CN1CCN(c2ccc(F)cc2)CC1,–,active: 1580 nM
CCCCCCCC(=O)OCCOC(=O)CCCCCCC,-13.2%,–
CC(C)c1c(O)ccc2c1CCC1C(C)(C)CCC[C@@]21C (stereo partly drawn),-331%,–
COc1cccc(NC(=O)Cn2c(=O)n(CCC(=O)NCc3ccco3)c(=O)c3ccccc32)c1,–,active: 3160 nM
C=C1c2cccc(O)c2C(O)=C2C(=O)[C@]3(O)C(O)=C(C(N)=O)C(=O)C(N(C)C)C3C(O)C12 (stereo partly drawn),-42.6%,–
CC(=O)OCOC(=O)CN(CC(=O)OCOC(C)=O)c1ccccc1OCCOc1ccccc1N(CC(=O)OCOC(C)=O)CC(=O)OCOC(C)=O,-23.8%,–
NC(N)=N/N=C\c1c(Cl)cccc1Cl,-45.3%,–
COc1ccc(-c2nc3c(c4nnc(SC(C)C(=O)Nc5ccccc5)n24)COC(C)(C)C3)cc1 (stereo not drawn),310% [at 10 µM],–
CCN(Cc1ccncc1)C(=O)C(CO)c1ccccc1 (stereo not drawn),-78.5%,–
O=C1OCCN1C(=O)[C@H]1[C@H](c2ccc(Cl)cc2)C(c2cccc(Cl)c2)=NN1c1ccccc1,-184%,–
CC1=C(Cl)C2=NS(=O)(=O)CCN2C=C1Cl,212% [at 10 µM],–
O=Nc1c(-c2c(O)[nH]c3ccccc23)[nH]c2ccccc12,59%,–
Cc1cccc(C)c1NC1=NC2(CCCCC2)N=C(N)N1,–,active: 631 nM

SMILES,cytoprotection (ATP increase),Potency
O=c1c(O)cccc2cc(O)c(O)c(O)c12,-143%,–
CSc1ncc(CN2CCN(C3CCCC3)C(CCO)C2)cn1 (stereo not drawn),199% [at 10 µM],–
CC1(C)C(O)CC[C@]2(C)C1CC[C@@]1(C)C2C(=O)C=C2[C@@H]3C[C@@](C)(C(=O)O)CC[C@@]3(C)CCC21C (stereo partly drawn),-60.1%,–
Cc1ccc(CN2C(=O)C[C@@H](NS(=O)(=O)c3ccc4ccccc4c3)C/C=C\C2c2ccc(C)cc2)cc1 (stereo partly drawn),-45.9% [at 40.3 µM],–
CCCCC[C@H](O)/C=C/[C@@H]1[C@H](C/C=C\CCCC(=O)O)[C@@H](O)C[C@H]1O,-16.9%,–
COc1ccc(-c2c(C)cc3oc(=O)cc(-c4ccccc4)c3c2C)cc1,-116%,–
N#Cc1ccc(-c2nc3cc(C#N)c(C#N)cc3nc2-c2ccccc2)cc1C#N,–,active: 2820 nM
COc1ccc2c(c1)OCc1c-2oc2cc(OC)ccc12,-70%,–
CO/N=C(/C(=O)N[C@H]1C(=O)N2C(C(=O)O)=C(COC(C)=O)CSC12)c1csc(N)n1 (stereo partly drawn),-51%,–
C=C1C[C@H](OC(=O)C(C)(O)CCl)C2C(=C)C(=O)O[C@@H]2C2C1C[C@H](O)[C@]2(O)CCl (stereo partly drawn),-358%,–
Cc1cc(C)c(C(=O)COC(=O)c2cc([N+](=O)[O-])ccc2NCCO)cc1C,346% [at 1.9 µM],–
NC(N)=Nc1nc(CSCC/C(N)=N\S(N)(=O)=O)cs1,-38.1%,–
COc1ccc(C2/C=C\CN(S(=O)(=O)c3ccc(C)cc3)CC(=O)N2Cc2cccc(F)c2)cc1 (stereo not drawn),-36.9%,–
COc1ccc2c(c1)O[C@@H](c1cccc(C(F)(F)F)c1)[C@H](OC(=O)Nc1cc(OC)c(OC)c(OC)c1)C2=O,54.1%,–
CCCCC/C=C\C/C=C\CCCCCCCCCC(=O)NC(C)C(=O)O (stereo not drawn),34.2%,–
Cn1cc([N+](=O)[O-])c(C(=O)N(Cc2ccccc2)Cc2ccccc2)n1,–,active: 2510 nM
Cc1ccccc1-c1ccc(C(=O)O)s1,-6.5% [at 96.6 µM],–
Cc1cc(=O)oc2cc(O)ccc12,–,active: 5620 nM
OC[C@@H]1[C@@H](c2ccc(F)cc2)C(c2cccc(Cl)c2)=NN1c1ccccc1,-142%,–
COc1ccc2c(c1)O[C@@H](c1ccc3c(c1)OCO3)[C@H](OC(=O)NCc1ccc3c(c1)OCO3)C2=O,-36.9%,–
COc1ccc(CN(CCN(C)C)c2ccccn2)cc1,-48.9%,–
COc1ccccc1[C@H]1C(c2cccc(C)c2)=NN(c2ccccc2)[C@@H]1CO,-339%,–
CCC(Sc1nncn1C)C(=O)Nc1ccccc1OC (stereo not drawn),–,active: 14100 nM
